Test results reported in US20230210967A1, “IMPROVED PEPTIDE VACCINE” (BRIGHTPATH BIOTHERAPEUTICS CO., LTD., priority 2020, published 2023).
Part of at least one peptide drawing is inferred or uncertain, most often the ends. Where a SMILES comes first, the peptide text is derived from it. Bridges are numbered along the chain shown (N, C = ends).

Molecular target: T1, anti-CD40 antibody (IgG) (Homo sapiens, UniProt P01857, L117A/L118A)
T1 construct: a secretion signal, a heavy-chain variable region, and a heavy-chain constant region were connected in tandem; anti-CD40 heavy-chain variable region (FGK45 clone, AEI27236.1, if the anti-mouse CD40 antibody was used); made in house; host or cells: ExpiCHO cells
Assay: Analysis of affinity of peptide for IgG (BIAcore 8K)
Assay type: binding
Settings: anti-CD40 antibody immobilized on CM5 sensor chip; peptide 3 nM to 243 nM; single kinetic mode

Structure (SMILES): CC[C@H](C)[C@H](NC(=O)[C@H](CO)NC(=O)[C@H](CCC(=O)O)NC(=O)[C@H](CC(C)C)NC(=O)[C@H](CCC(N)=O)NC(=O)[C@@H](N)CCC(=O)O)C(=O)N[C@H](C(=O)N[C@@H](CC(N)=O)C(=O)N[C@@H](Cc1ccccc1)C(=O)N[C@@H](CCC(=O)O)C(=O)N[C@@H](CCCCN)C(=O)N[C@@H](CC(C)C)C(=O)N[C@H](C(=O)N[C@@H](CCC(=O)O)C(=O)N[C@@H](Cc1c[nH]c2ccccc12)C(=O)N[C@H](C(=O)NCC(=O)N1CCC[C@H]1C(=O)N[C@@H](CC(=O)O)C(=O)N[C@H]1CSSC[C@@H](C(=O)N[C@H](C(=O)N[C@@H](Cc2ccccc2)C(=O)N[C@@H](Cc2c[nH]cn2)C(=O)O)[C@@H](C)O)NC(=O)[C@H](Cc2c[nH]c3ccccc23)NC(=O)[C@H](C(C)C)NC(=O)[C@H](CC(C)C)NC(=O)[C@H](CCC(=O)O)NC(=O)CNC(=O)[C@H](CCCNC(=N)N)NC(=O)[C@H](Cc2c[nH]cn2)NC(=O)[C@H](Cc2c[nH]c3ccccc23)NC(=O)[C@H](C)NC1=O)[C@@H](C)O)[C@@H](C)O)[C@@H](C)CC [Peptide (3-3), EQLESIINFEKLTEWT GPDCAWHRGELVWCTFH] (H-EQLESIINFEKLTEWTGPDCAWHRGELVWCTFH-OH; disulfide 20-30 (inferred); N-terminus and C-terminus assumed)
- Dissociation rate constant (Kd): about the same dissociation rate constant (Kd) as peptide (3-1)
- Kd: 65.8 nM
